Results taken from publication PMC11331138, “Leveraging coevolutionary insights and AI-based structural modeling to unravel receptor–peptide ligand-binding mechanisms” (Proceedings of the National Academy of Sciences of the …, 2024).
Results are given in words; binding and its absence hold for the method and conditions named. Blank lines part the entries; values can stand above or below the substance they belong to.

Amino acid sequences for entries named in this document (tags omitted). A change or cut given only in a name is not applied to a line headed by its entry. Chains listed by the source or under a name are the forms on record and can include a tag or linker.
MIK2 ectodomain D246G/N268A (S5 binding pocket double mutant) (Q8VZG8, form named): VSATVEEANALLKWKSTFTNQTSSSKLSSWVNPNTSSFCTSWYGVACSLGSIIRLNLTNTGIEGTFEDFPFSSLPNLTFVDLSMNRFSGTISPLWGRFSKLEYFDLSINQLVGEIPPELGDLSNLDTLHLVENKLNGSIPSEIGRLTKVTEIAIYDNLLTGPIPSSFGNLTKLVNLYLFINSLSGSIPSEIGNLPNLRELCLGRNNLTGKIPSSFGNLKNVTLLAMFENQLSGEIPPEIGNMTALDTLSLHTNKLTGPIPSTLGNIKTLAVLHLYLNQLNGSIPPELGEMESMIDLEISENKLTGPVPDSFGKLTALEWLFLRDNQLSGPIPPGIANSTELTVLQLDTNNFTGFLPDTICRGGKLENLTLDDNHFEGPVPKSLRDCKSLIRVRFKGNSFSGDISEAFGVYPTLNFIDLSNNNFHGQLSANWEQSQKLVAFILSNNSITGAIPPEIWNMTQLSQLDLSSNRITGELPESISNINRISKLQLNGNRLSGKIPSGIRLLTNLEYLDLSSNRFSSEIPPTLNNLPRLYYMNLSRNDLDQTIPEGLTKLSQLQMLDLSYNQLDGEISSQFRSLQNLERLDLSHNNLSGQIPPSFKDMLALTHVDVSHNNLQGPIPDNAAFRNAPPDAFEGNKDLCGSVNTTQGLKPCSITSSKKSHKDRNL
MIK2 ectodomain S292A (S7 binding pocket variant) (Q8VZG8, form named): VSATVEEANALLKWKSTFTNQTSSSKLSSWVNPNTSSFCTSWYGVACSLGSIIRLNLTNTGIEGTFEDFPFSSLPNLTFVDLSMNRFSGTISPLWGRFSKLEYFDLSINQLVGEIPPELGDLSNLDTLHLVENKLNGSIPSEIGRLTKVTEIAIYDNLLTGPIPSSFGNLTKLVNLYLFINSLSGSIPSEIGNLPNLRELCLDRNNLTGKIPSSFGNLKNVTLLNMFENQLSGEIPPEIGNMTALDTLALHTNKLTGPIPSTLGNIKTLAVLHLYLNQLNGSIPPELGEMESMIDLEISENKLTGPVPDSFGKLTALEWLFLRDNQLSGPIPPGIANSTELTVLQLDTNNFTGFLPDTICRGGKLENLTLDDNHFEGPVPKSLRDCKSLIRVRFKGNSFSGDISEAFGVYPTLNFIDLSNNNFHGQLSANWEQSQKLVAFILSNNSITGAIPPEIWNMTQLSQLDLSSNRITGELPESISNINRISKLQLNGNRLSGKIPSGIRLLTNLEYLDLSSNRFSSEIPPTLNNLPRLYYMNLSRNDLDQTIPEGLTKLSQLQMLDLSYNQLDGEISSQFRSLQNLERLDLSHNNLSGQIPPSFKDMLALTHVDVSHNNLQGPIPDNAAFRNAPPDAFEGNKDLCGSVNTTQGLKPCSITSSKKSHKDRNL
MIK2 ectodomain D246G (S5 binding pocket variant) (Q8VZG8, form named): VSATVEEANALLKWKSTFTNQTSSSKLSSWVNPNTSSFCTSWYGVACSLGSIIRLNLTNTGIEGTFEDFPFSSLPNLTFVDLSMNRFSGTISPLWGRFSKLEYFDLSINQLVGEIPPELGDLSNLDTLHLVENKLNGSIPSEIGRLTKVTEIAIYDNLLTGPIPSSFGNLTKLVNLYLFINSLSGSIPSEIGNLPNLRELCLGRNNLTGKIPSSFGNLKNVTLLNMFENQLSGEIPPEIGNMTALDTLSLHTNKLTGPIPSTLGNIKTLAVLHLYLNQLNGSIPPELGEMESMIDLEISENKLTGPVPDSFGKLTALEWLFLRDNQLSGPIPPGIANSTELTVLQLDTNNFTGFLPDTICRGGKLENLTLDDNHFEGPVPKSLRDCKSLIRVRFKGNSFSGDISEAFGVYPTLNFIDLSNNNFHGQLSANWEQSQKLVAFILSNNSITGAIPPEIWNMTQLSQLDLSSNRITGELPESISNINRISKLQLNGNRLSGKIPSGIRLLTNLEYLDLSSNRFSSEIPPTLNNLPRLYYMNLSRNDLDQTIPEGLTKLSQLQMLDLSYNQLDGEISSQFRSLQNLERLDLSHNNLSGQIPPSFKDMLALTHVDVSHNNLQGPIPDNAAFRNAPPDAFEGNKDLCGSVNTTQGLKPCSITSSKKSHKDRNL
MIK2 ectodomain S292A/H316A (S7 binding pocket double mutant) (Q8VZG8, form named): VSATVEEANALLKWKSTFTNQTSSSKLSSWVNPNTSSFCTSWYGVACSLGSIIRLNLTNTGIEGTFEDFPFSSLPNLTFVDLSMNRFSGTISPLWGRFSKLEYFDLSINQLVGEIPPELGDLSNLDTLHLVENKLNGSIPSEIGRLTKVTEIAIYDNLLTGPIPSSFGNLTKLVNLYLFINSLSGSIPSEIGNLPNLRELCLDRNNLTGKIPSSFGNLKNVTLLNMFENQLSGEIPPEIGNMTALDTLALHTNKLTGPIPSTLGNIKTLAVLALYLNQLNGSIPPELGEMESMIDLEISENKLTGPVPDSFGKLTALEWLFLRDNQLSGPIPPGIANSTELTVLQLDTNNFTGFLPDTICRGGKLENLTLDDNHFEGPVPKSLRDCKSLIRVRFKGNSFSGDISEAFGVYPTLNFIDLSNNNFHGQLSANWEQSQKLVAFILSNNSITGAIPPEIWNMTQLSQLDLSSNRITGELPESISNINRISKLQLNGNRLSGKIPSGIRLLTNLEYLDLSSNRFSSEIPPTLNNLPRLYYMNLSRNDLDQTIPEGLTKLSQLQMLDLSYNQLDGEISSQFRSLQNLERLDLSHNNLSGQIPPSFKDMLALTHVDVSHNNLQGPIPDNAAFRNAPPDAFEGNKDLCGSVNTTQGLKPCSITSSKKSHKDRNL

Tests used:
Assay in all cases: SEC; analytical size-exclusion chromatography of the recombinant MIK2 ectodomain mutants; both purified
[1] = biological target: MIK2 ectodomain D246G/N268A (S5 binding pocket double mutant) (Arabidopsis thaliana) (UniProt Q8VZG8)
[2] = biological target: MIK2 ectodomain S292A (S7 binding pocket variant) (Arabidopsis thaliana) (UniProt Q8VZG8)
[3] = biological target: MIK2 ectodomain D246G (S5 binding pocket variant) (Arabidopsis thaliana) (UniProt Q8VZG8)
[4] = biological target: MIK2 ectodomain S292A/H316A (S7 binding pocket double mutant) (Arabidopsis thaliana) (UniProt Q8VZG8)

binding [1]: no binding
Substance: MIK2 ectodomain D246G/N268A (S5 binding pocket double mutant) (from UniProt Q8VZG8 44-709) (domain or fragment)

binding [2]: no binding
Substance: MIK2 ectodomain S292A (S7 binding pocket variant) (from UniProt Q8VZG8 44-709) (domain or fragment)

binding [3]: no binding
Substance: MIK2 ectodomain D246G (S5 binding pocket variant) (from UniProt Q8VZG8 44-709) (domain or fragment)

binding [4]: no binding
Substance: MIK2 ectodomain S292A/H316A (S7 binding pocket double mutant) (from UniProt Q8VZG8 44-709) (domain or fragment)
